In publication PMC3556083:
No constants are given. Whether binding was seen depends on the method and setting. Binding seen in cells or lysates may run through a third protein. Some entries that bind do so weakly or less than the wild type.

Chains of the proteins cited; added tags and fusions are not shown.
UniProt Q09137: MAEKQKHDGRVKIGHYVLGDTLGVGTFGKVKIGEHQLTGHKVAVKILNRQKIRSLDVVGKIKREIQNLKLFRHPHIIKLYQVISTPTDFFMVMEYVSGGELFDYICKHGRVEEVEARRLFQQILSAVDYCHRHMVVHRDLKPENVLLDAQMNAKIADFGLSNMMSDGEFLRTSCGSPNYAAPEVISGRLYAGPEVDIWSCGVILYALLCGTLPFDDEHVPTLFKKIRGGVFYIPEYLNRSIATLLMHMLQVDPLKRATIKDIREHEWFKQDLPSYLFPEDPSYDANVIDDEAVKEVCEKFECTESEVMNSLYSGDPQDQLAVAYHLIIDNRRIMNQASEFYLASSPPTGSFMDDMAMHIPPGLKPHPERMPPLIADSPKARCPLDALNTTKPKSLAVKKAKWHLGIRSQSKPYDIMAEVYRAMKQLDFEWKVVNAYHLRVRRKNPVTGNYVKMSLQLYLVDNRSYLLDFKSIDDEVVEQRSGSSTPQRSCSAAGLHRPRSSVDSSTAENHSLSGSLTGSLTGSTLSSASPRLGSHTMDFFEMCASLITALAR
UniProt P62994: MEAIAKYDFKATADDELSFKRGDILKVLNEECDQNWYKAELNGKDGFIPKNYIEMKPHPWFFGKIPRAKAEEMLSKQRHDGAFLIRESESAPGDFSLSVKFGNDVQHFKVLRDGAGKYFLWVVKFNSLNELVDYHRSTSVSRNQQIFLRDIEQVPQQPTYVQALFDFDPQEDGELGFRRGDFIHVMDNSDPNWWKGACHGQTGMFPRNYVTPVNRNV
UniProt P63095: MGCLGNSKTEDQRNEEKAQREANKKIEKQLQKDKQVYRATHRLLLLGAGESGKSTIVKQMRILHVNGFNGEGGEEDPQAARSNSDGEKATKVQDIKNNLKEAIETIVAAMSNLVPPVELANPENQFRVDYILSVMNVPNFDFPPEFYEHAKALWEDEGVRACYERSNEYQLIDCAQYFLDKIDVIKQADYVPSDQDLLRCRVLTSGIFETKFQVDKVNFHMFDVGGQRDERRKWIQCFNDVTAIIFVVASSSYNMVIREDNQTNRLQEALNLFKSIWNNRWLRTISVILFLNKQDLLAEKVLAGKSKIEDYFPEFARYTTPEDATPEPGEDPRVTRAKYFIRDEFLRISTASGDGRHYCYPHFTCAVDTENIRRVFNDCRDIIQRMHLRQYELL
UniProt Q920G2: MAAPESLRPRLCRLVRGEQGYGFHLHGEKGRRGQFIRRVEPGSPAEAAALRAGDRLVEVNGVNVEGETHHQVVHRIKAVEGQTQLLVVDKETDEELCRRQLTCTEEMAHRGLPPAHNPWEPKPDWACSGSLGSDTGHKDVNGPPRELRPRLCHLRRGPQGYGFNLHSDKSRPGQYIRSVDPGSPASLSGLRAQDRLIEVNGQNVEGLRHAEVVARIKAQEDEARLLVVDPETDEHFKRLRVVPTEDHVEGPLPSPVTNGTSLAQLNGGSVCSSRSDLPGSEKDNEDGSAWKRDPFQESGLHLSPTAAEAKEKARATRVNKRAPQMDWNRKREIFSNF

What was measured:
[1] = molecular target: β2-adrenergic receptor (UniProt P07550); experiment: pull-down; purified Flag-β2AR in rHDL on M1 anti-Flag resin, occupied by 50 µM BI-167107 or 50 µM carazolol; adult rat heart cytosol overnight at 4°C; eluate analysed by Western blot; only the target purified
[2] = molecular target: β2-adrenergic receptor (UniProt P07550); experiment: condition: only β2AR occupied by the inverse agonist carazolol (50 µM); pull-down; as a2, the sample with β2AR occupied by 50 µM carazolol (inverse agonist) alone; Western blot; only the target purified

| Substance | binding [1] | binding [2] |
| --- | --- | --- |
| AMPKα2 (from UniProt Q09137 1-552) | binds | – |
| Grb2 (from UniProt P62994 1-217) | binds | – |
| Gsα (from UniProt P63095 1-394) | binds | no binding |
| NHERF-2 (from UniProt Q920G2 1-337) | binds | – |
